Test results as given in paper PMC9344042.
Results are given in words; binding and its absence hold for the method and conditions named. In cells and extracts the contact can be indirect. Binding can be weak; no strength is given. Where a sequence is shown, tags or fusion partners need not be part of it.

Amino acid sequences for entries named in this document (tags omitted). A change or cut given only in a name is not applied to a line headed by its entry.
UniProt Q9UUE3: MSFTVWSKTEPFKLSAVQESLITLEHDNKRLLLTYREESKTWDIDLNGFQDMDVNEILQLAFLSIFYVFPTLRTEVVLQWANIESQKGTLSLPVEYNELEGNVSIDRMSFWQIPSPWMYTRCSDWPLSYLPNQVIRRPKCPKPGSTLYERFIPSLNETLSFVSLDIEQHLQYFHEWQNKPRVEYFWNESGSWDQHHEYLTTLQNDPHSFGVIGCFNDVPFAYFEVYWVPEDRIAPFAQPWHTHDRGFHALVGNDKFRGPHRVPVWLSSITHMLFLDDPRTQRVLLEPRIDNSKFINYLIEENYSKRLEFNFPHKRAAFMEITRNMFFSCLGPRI

Molecular target: TAP-tagged Sib3 (S. pombe) (UniProt Q9UUE3)
Test: pull-down; whole cell extracts of S. pombe sib2Δ sib3Δ cells co-expressing Sib3-TAP with Sib2-GFP or GFP alone, grown with Dip (250 μM, 90 min); Sib3-TAP held on IgG-Sepharose 6 Fast-Flow beads; bound fraction immunoblotted with anti-mouse IgG, anti-GFP and anti-α-tubulin

B1: GFP-tagged Sib2 (enzyme, UniProt Q9P7T0 1-431)
chain: MTEPLDLAIIGFGPASLSFLIALHDHSEEPLKNKKIRVFEKLPTFSWHEGMLIPGSNMQISFVKDLATPRDPTSYFTFLNYLHSHGQERLSGFLNMSTLEPSRYEYHDYLCWAASHFSKFVEYNANINKLHYDAATDLYIVGHGDTQWQAKNIIITTGCQPYIPPLYKSVDSPLIVHSSKFMSDHSQKLLRNSKHGILVVGCGQSAAEIWKHCHYSLDPKTPLAMCFRNLAPVPSDSSPFVNSLYFDSHNSHWWYNLPTEARLKGLSVGRTTNYSVVKESLLEEMFKECYLQKLRYGQEFHQIMGDTDIQSIKNEGDHLVVQLTSQMDKSKKPETRKIDVLYVATGYDHESFDVLMSSLFPNSQGAQISEEYCVLNAPSKQGKVYVAGITSNQHGIGETLLSWAAIRAGGLAKELFGPSKPTARVPASYLN
  binding: binds
